PubChem BioAssay AID248 (DTP/NCI, 2004)
The list shows only some results of the screen, not a fair sample: it gathers tests that were run many times, whatever their T/C, doses with no T/C, and many T/C values between a quarter and a half above the control. Further doses and runs are listed elsewhere. T/C: endpoint of the treated group in % of that of the vehicle group. Where survival is the endpoint, this PubChem deposit counts one and a half times the control or more as active, and values a quarter to a half above the control carry no call in these data; other NCI protocols may use other cut-offs. Schedule codes are those of the source, read here as Q, the interval in days (D) or hours (H), X, the number of doses. Additions like (4×) say how often a value occurs here. Some entries were tested several times; the values are given in rising order. Some schedules carry Z or #; the key to these is not given.

System: L1210 leukemia ip in BDF1 mice, survival T/C
Test: NCI In Vivo Anticancer Drug Screen. Data for tumor model L1210 Leukemia (intraperitoneal) in B6D2F1 (BDF1) mice
Details: T/C endpoint: median survival time, higher T/C = longer survival

Q: With `CN(C)/N=N/c1nc[nH]c1C(N)=O` as the compound, how does the T/C (dose: 39.0 mg/kg/injection, schedule: Q01DX Z (ip), vehicle: steroid suspending solution) read?
A: 127 % of control

Q: And the T/C (dose: 50.0 mg/kg/injection, schedule: Q01DX017 (ip), vehicle: steroid suspending solution, evaluated on day 5)?
A: 118 % of control

Q: And the T/C (dose: 50.0 mg/kg/injection, schedule: Q01DX017 (ip), vehicle: steroid suspending solution, evaluated on day 30)?
A: 118 % of control

Q: And the T/C (dose: 50.0 mg/kg/injection, schedule: Q01DX017 (ip), vehicle: steroid suspending solution, evaluated on day 40)?
A: 133 % of control

Q: What about the T/C (dose: 50.0 mg/kg/injection, schedule: Q01DX017 (ip), vehicle: steroid suspending solution, evaluated on day 50) of the same compound?
A: 122 % of control

Q: And the T/C (dose: 50.0 mg/kg/injection, schedule: Q01DX017 (ip), vehicle: steroid suspending solution, evaluated on day 54)?
A: 105, 122, 125 % of control

Q: And the T/C (dose: 50.0 mg/kg/injection, schedule: Q01DX017 (ip), vehicle: steroid suspending solution, evaluated on day 60)?
A: 133 % of control

Q: And the T/C (dose: 50.0 mg/kg/injection, schedule: Q01DX017 (ip), vehicle: steroid suspending solution, evaluated on day 69)?
A: 111 % of control

Q: What about the T/C (dose: 65.0 mg/kg/injection, schedule: Q01DX009 (ip), vehicle: steroid suspending solution) of the same compound?
A: 140 % of control

Q: And the T/C (dose: 65.0 mg/kg/injection, schedule: Q01DX033 (ip), vehicle: other)?
A: 130 % of control

Q: What about the T/C (dose: 65.0 mg/kg/injection, schedule: Q01DX Z (ip), vehicle: steroid suspending solution) of the same compound?
A: 133 % of control

Q: What about the T/C (dose: 100.0 mg/kg/injection, schedule: Q01DX009 (ip), vehicle: Klucel (hydroxypropylcellulose) (HPC), evaluated on day 24) of the same compound?
A: 150 % of control

Q: What about the T/C (dose: 100.0 mg/kg/injection, schedule: Q01DX009 (ip), vehicle: Klucel (hydroxypropylcellulose) (HPC), evaluated on day 26) of the same compound?
A: 130 % of control

Q: What about the T/C (dose: 100.0 mg/kg/injection, schedule: Q01DX009 (ip), vehicle: Klucel (hydroxypropylcellulose) (HPC), evaluated on day 30) of the same compound?
A: 122 % of control (2×)

Q: What about the T/C (dose: 100.0 mg/kg/injection, schedule: Q01DX009 (ip), vehicle: Klucel (hydroxypropylcellulose) (HPC), evaluated on day 40) of the same compound?
A: 133 % of control

Q: And the T/C (dose: 100.0 mg/kg/injection, schedule: Q01DX017 (ip), vehicle: steroid suspending solution, evaluated on day 5)?
A: 136 % of control

Q: What about the T/C (dose: 100.0 mg/kg/injection, schedule: Q01DX017 (ip), vehicle: steroid suspending solution, evaluated on day 30) of the same compound?
A: 122 and 136 % of control

Q: What about the T/C (dose: 100.0 mg/kg/injection, schedule: Q01DX017 (ip), vehicle: steroid suspending solution, evaluated on day 40) of the same compound?
A: 144 % of control

Q: And the T/C (dose: 100.0 mg/kg/injection, schedule: Q01DX017 (ip), vehicle: steroid suspending solution, evaluated on day 45)?
A: 144 % of control

Q: What about the T/C (dose: 100.0 mg/kg/injection, schedule: Q01DX017 (ip), vehicle: steroid suspending solution, evaluated on day 50) of the same compound?
A: 116 and 133 % of control

Q: What about the T/C (dose: 100.0 mg/kg/injection, schedule: Q01DX017 (ip), vehicle: steroid suspending solution, evaluated on day 54) of the same compound?
A: 116, 125, 127 % of control

Q: And the T/C (dose: 100.0 mg/kg/injection, schedule: Q01DX017 (ip), vehicle: steroid suspending solution, evaluated on day 60)?
A: 127 % of control

Q: What about the T/C (dose: 100.0 mg/kg/injection, schedule: Q01DX017 (ip), vehicle: steroid suspending solution, evaluated on day 69) of the same compound?
A: 116 % of control

Q: And the T/C (dose: 100.0 mg/kg/injection, schedule: Q## X017 (ip), vehicle: steroid suspending solution)?
A: 136 % of control

Q: What about the T/C (dose: 108.0 mg/kg/injection, schedule: Q01DX009 (ip), vehicle: Klucel (hydroxypropylcellulose) (HPC), evaluated on day 5) of the same compound?
A: 134 and 158 % of control

Q: And the T/C (dose: 108.0 mg/kg/injection, schedule: Q01DX009 (ip), vehicle: Klucel (hydroxypropylcellulose) (HPC), evaluated on day 27)?
A: 158 % of control

Q: And the T/C (dose: 108.0 mg/kg/injection, schedule: Q01DX009 (ip), vehicle: Klucel (hydroxypropylcellulose) (HPC), evaluated on day 30)?
A: 110, 136, 140 % of control

Q: What about the T/C (dose: 108.0 mg/kg/injection, schedule: Q01DX009 (ip), vehicle: Klucel (hydroxypropylcellulose) (HPC), evaluated on day 33) of the same compound?
A: 111 % of control

Q: What about the T/C (dose: 108.0 mg/kg/injection, schedule: Q01DX015 (ip), vehicle: Klucel (hydroxypropylcellulose) (HPC), evaluated on day 5) of the same compound?
A: 107 and 117 % of control

Q: And the T/C (dose: 108.0 mg/kg/injection, schedule: Q01DX015 (ip), vehicle: Klucel (hydroxypropylcellulose) (HPC), evaluated on day 7)?
A: 123 % of control

Q: What about the T/C (dose: 108.0 mg/kg/injection, schedule: Q01DX015 (ip), vehicle: Klucel (hydroxypropylcellulose) (HPC), evaluated on day 20) of the same compound?
A: 123 % of control

Q: What about the T/C (dose: 108.0 mg/kg/injection, schedule: Q01DX015 (ip), vehicle: Klucel (hydroxypropylcellulose) (HPC), evaluated on day 33) of the same compound?
A: 110 % of control

Q: What about the T/C (dose: 108.0 mg/kg/injection, schedule: Q01DX015 (ip), vehicle: Klucel (hydroxypropylcellulose) (HPC), evaluated on day 38) of the same compound?
A: 122 % of control

Q: And the T/C (dose: 108.0 mg/kg/injection, schedule: Q01DX017 (ip), vehicle: Klucel (hydroxypropylcellulose) (HPC), evaluated on day 5)?
A: 116 and 128 % of control

Q: What about the T/C (dose: 108.0 mg/kg/injection, schedule: Q01DX017 (ip), vehicle: Klucel (hydroxypropylcellulose) (HPC), evaluated on day 33) of the same compound?
A: 130 % of control

Q: And the T/C (dose: 108.0 mg/kg/injection, schedule: Q01DX017 (ip), vehicle: Klucel (hydroxypropylcellulose) (HPC), evaluated on day 38)?
A: 116 % of control

Q: And the T/C (dose: 108.0 mg/kg/injection, schedule: Q01DX033 (ip), vehicle: other)?
A: 136 % of control

Q: What about the T/C (dose: 108.0 mg/kg/injection, schedule: Q01DX Z (ip), vehicle: steroid suspending solution) of the same compound?
A: 138 % of control

Q: What about the T/C (dose: 160.0 mg/kg/injection, schedule: Q01DX009 (ip), vehicle: Klucel (hydroxypropylcellulose) (HPC)) of the same compound?
A: 128 % of control

Q: What about the T/C (dose: 180.0 mg/kg/injection, schedule: Q01DX009 (ip), vehicle: Klucel (hydroxypropylcellulose) (HPC), evaluated on day 5) of the same compound?
A: 151 and 168 % of control

Q: What about the T/C (dose: 180.0 mg/kg/injection, schedule: Q01DX009 (ip), vehicle: Klucel (hydroxypropylcellulose) (HPC), evaluated on day 27) of the same compound?
A: 168 % of control
